In PMC7655153:

Experiments:
[1] = target: T1, BAG5 (human (endogenous in U2OS, HeLa, SH-SY5Y cells and in human brain lysates)) (UniProt Q9UL15); assay: co-IP; human brain lysates (200 μg, Novus Biological) of normal control and PD; anti-BAG5 overnight at 4°C, protein A-Sepharose; blots for phospho-α-synuclein (Ser129), α-synuclein and HSP70
T1 sequence: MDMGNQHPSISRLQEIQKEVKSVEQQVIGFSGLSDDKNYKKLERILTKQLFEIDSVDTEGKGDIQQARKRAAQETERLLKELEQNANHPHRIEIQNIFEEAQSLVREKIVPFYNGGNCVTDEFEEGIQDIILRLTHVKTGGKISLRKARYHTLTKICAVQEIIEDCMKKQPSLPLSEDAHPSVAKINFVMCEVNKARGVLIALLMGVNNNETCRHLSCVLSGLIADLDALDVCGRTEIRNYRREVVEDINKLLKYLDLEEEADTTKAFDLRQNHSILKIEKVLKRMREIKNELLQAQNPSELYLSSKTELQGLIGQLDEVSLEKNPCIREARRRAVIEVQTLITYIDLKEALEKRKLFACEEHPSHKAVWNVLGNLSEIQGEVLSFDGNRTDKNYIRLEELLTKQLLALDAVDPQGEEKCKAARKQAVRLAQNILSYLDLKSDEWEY

[2] = target: T1, BAG5 (human (endogenous in U2OS, HeLa, SH-SY5Y cells and in human brain lysates)); assay: co-IP; lysates (1000 μg, NP40 lysis buffer) of etoposide- or H2O2-treated U2OS, HeLa and SH-SY5Y cells; anti-BAG5 overnight at 4°C, protein A-Sepharose; blots for α-synuclein and HSP70

binding [1]: binds | binding [2]: binds
Substance: HSP70

Results are given in words; binding and its absence hold for the method and conditions named. In cells and extracts the contact can be indirect. A result given as binding can be weak or reduced; the word gives no strength.
